According to the supplement of paper PMC10849652:
This is one part of the list.

Sequences of proteins named here, by UniProt entry; tags and fusion partners are left off. A change or cut given only in a name is not applied to a line headed by its entry.
UniProt P56182: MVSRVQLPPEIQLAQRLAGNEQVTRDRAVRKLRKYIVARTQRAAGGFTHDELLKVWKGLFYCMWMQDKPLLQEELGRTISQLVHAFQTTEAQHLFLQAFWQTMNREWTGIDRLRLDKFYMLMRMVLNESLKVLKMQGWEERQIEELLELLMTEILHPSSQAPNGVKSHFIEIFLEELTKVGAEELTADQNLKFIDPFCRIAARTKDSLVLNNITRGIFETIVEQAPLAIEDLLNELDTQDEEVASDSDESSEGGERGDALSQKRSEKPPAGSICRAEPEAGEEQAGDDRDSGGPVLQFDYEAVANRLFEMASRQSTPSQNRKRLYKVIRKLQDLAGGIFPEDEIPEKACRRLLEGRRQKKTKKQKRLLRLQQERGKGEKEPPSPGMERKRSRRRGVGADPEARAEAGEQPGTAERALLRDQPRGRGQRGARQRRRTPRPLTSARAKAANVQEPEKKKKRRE
UniProt Q9P2E9: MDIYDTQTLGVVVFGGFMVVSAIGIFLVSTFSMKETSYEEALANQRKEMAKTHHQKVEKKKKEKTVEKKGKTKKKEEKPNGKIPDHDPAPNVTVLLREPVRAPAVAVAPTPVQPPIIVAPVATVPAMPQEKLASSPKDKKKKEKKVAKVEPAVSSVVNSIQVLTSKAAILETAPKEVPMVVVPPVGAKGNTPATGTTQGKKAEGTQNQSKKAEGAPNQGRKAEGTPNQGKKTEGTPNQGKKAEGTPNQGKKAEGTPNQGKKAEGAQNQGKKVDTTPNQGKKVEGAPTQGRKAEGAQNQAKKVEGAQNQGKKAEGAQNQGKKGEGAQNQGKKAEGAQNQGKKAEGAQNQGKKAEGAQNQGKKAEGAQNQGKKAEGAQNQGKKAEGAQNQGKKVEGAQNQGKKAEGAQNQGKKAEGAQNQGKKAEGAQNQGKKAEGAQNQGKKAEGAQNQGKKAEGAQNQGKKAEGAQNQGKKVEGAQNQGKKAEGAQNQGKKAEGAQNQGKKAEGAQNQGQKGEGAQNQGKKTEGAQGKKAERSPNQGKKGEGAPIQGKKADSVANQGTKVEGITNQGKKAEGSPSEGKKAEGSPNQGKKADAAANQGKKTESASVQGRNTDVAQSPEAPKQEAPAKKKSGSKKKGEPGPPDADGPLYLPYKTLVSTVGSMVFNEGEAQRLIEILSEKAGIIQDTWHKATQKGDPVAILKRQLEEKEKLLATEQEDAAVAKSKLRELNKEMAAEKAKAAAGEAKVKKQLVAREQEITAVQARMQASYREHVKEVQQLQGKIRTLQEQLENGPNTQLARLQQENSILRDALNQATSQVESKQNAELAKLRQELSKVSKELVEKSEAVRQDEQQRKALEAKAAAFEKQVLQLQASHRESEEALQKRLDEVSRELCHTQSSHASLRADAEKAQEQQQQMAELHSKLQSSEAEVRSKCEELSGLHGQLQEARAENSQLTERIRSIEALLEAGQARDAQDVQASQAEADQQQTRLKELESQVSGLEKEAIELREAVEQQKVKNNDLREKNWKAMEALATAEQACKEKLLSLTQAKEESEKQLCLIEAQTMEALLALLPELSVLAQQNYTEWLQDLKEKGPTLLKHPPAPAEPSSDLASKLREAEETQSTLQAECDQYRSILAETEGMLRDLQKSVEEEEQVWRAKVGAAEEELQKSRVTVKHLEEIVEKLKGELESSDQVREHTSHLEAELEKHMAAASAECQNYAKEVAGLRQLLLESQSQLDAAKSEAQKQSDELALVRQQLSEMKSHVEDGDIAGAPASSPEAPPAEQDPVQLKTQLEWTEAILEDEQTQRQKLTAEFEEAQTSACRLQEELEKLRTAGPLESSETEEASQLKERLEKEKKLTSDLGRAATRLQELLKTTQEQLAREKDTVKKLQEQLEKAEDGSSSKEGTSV
UniProt Q96T51: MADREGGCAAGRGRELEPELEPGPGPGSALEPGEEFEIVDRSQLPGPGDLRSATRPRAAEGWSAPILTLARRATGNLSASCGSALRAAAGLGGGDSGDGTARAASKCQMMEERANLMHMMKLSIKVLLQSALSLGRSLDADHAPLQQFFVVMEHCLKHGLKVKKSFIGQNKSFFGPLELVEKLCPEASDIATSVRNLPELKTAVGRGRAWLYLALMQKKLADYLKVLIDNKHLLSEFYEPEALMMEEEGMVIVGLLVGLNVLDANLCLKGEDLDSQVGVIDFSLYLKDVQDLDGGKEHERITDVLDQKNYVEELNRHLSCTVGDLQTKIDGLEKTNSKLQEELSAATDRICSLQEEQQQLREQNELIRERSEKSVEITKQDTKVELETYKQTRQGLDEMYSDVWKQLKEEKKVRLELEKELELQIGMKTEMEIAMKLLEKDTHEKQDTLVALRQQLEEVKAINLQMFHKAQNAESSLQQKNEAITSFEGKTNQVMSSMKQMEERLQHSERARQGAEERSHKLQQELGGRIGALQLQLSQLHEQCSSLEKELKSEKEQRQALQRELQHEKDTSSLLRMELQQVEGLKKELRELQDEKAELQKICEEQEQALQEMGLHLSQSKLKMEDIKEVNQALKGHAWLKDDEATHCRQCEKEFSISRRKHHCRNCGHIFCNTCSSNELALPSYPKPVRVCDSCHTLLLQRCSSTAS
UniProt O43159: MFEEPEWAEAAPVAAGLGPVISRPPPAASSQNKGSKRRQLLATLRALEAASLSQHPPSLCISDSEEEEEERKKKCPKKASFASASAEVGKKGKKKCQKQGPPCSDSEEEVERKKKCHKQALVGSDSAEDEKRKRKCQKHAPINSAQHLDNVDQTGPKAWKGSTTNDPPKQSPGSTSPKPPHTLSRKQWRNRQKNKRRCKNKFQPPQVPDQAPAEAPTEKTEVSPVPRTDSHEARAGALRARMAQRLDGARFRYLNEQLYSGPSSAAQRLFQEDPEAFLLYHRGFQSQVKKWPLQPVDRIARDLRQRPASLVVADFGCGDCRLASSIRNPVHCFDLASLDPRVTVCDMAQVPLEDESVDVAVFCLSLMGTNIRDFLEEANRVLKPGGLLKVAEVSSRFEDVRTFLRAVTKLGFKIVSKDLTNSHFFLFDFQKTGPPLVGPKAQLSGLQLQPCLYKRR
UniProt Q9BY42: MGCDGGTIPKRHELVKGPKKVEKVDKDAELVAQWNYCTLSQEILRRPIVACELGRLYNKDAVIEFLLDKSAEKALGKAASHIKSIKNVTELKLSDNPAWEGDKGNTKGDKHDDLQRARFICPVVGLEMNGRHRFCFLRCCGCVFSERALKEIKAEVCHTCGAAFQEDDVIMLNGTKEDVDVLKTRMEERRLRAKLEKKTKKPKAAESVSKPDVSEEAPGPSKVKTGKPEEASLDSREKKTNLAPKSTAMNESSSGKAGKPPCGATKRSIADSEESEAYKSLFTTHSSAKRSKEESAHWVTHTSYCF
UniProt Q9BUL9: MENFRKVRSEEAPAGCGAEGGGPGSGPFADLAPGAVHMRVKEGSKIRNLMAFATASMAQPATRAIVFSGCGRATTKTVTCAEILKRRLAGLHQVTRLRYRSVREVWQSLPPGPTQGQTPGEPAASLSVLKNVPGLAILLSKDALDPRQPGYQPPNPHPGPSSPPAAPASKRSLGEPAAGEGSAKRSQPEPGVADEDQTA
UniProt Q9Y3B9: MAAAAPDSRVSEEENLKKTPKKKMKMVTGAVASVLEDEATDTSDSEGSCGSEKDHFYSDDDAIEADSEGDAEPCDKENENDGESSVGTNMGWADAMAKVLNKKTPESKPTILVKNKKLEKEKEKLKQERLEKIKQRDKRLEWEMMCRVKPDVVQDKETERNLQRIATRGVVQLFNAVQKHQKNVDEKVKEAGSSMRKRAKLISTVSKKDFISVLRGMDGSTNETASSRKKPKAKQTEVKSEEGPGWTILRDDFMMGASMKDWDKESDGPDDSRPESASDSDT
UniProt Q14684: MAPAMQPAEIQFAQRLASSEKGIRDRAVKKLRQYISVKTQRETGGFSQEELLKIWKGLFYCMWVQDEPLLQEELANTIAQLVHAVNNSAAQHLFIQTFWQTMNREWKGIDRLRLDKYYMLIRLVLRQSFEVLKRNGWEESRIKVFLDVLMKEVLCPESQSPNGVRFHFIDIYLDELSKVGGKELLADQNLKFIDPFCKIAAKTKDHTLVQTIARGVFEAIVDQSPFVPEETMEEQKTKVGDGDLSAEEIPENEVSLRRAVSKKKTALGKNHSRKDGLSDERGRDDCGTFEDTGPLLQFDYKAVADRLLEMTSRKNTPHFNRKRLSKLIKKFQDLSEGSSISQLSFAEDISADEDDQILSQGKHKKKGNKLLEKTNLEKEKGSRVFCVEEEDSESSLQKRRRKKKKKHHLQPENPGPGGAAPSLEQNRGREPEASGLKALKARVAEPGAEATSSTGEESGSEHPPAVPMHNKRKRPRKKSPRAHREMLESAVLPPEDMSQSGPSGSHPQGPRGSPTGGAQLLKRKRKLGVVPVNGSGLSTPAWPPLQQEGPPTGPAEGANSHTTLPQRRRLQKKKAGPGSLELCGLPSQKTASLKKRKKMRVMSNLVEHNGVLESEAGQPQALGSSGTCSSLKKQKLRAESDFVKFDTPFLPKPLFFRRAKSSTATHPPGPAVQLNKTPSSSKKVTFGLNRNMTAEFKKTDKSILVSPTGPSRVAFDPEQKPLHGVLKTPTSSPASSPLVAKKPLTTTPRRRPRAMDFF
UniProt O95197: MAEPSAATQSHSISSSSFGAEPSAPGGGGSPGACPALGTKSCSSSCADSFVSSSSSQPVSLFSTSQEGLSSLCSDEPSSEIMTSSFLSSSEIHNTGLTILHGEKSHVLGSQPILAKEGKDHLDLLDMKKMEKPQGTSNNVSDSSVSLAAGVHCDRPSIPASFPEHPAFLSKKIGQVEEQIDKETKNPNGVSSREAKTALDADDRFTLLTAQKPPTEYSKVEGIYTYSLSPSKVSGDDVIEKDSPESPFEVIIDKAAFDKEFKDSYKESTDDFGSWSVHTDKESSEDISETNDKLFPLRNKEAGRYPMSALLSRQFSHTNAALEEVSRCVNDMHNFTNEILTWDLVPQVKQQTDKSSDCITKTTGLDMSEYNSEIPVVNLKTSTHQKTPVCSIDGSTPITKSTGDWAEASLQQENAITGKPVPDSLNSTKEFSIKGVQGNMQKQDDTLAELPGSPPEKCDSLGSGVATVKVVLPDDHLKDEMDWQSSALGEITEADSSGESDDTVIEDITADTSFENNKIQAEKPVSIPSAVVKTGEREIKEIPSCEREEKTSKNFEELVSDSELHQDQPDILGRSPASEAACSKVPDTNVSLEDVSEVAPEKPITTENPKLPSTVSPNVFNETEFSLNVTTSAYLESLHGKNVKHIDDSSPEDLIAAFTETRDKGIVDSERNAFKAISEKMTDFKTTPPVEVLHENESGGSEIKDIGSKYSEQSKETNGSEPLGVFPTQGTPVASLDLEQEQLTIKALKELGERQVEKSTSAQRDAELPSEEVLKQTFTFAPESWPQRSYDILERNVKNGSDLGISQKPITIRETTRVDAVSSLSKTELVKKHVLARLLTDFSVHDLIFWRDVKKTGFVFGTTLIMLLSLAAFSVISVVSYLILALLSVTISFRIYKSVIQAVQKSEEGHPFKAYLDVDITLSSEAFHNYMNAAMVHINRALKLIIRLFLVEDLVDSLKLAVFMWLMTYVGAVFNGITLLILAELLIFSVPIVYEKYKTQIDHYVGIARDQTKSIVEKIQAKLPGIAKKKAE
UniProt Q96IZ7: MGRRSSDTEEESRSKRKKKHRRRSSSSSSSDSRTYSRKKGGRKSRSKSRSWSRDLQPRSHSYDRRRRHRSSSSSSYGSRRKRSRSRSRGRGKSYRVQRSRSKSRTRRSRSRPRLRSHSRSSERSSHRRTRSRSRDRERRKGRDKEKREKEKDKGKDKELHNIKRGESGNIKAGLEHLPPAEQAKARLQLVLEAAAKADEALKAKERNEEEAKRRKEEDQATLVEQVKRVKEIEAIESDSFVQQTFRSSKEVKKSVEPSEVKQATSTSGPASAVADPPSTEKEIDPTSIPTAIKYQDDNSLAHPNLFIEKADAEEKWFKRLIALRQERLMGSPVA
UniProt Q9H633: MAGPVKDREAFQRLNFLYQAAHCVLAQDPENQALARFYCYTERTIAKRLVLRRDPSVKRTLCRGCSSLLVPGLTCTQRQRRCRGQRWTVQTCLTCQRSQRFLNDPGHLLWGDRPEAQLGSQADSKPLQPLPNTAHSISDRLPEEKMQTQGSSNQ
UniProt P05387, whole entry, looked up: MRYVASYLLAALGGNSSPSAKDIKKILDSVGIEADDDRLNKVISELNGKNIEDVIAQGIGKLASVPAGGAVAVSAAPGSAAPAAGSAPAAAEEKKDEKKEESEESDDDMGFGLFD
UniProt Q9UIY3: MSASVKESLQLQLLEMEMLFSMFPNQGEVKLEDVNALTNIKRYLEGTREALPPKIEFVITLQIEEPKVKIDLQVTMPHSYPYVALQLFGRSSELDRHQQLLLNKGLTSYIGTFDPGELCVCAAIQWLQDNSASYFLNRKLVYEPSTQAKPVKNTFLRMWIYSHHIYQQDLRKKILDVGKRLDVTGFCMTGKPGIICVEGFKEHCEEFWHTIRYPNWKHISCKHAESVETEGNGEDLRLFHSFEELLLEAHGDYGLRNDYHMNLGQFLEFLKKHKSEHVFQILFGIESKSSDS

Compound: Cc1sc2c(c1C)C(c1ccc(Cl)cc1)=N[C@@H](CC(=O)OC(C)(C)C)c1nnc(C)n1-2
Experiment: log2 fold change, soluble protein after heating vs DMSO (PISA); higher = thermal stabilisation; K562 lysate, 10 uM; active = over 0.2 and 3.5 SD of the protein, either way, in both replicates (recomputed)
Summary of the method: (§1)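 Following dounce homogenisation of K562 pellets in PBS pH 7.4 with 1 mM MgCl2, crude extract at 1 mg/mL protein was incubated for 30 min with 10 μM compound. Aliquots were then heated for 3 min over 48°C-58°C and pooled, NP-40 was added to 0.5% at 4°C, and soluble protein was recovered as the supernatant at 21,000xg for 90 min. Channel-sum-equalised TMTpro 16plex LC-MS/MS quantified this protein. Each value, from duplicates, is a log-two fold change in thermal stability relative to solvent controls.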

| Target | log2 fold change |
| --- | --- |
| RRP1 (UniProt P56182) | inactive: 0.033 |
| RPS16 (UniProt P62249) | inactive: -0.008 |
| RUVBL1 (UniProt Q9Y265) | inactive: 0.006 |
| RPL39P5 (UniProt Q59GN2) | inactive: -0.046 |
| RUSC2 (UniProt Q8N2Y8) | inactive: 0.157 |
| RPL9 (UniProt P32969) | inactive: -0.015 |
| RPS29 (UniProt P62273) | inactive: 0.328 |
| RRBP1 (UniProt Q9P2E9) | inactive: 0.003 |
| RUFY1 (UniProt Q96T51) | inactive: -0.05 |
| RPS5 (UniProt P46782) | inactive: 0.055 |
| RTTN (UniProt Q86VV8) | inactive: 0.046 |
| RRP8 (UniProt O43159) | inactive: -0.017 |
| RTF2 (UniProt Q9BY42) | inactive: 0.007 |
| RPS20 isoform 2 (UniProt P60866) | inactive: 0.007 |
| RTRAF (UniProt Q9Y224) | inactive: -0.003 |
| RSPRY1 (UniProt Q96DX4) | inactive: -0.037 |
| RTN4 isoform 2 (UniProt Q9NQC3) | inactive: -0.043 |
| RPS13 (UniProt P62277) | inactive: 0.079 |
| RPP25 (UniProt Q9BUL9) | inactive: 0.106 |
| RSL1D1 (UniProt O76021) | inactive: 0.066 |

| Target | log2 fold change |
| --- | --- |
| RPP38 (UniProt P78345) | inactive: -0.016 |
| RPL37 (UniProt P61927) | inactive: -0.019 |
| RPS18 (UniProt P62269) | inactive: -0.003 |
| RPS6 (UniProt P62753) | inactive: -0.01 |
| RRP15 (UniProt Q9Y3B9) | inactive: 0.006 |
| RRP1B (UniProt Q14684) | inactive: -0.013 |
| RTN2 (UniProt O75298) | inactive: 0.004 |
| RTF1 (UniProt Q92541) | inactive: -0.017 |
| RTN3 isoform 5 (UniProt O95197) | inactive: -0.007 |
| RSRC1 (UniProt Q96IZ7) | inactive: 0.008 |
| RPL7 (UniProt P18124) | inactive: 0.009 |
| RPLP0 (UniProt P05388) | inactive: -0.014 |
| RPS25 (UniProt P62851) | inactive: 0.017 |
| RPP21 isoform 4 (UniProt Q9H633) | inactive: 0.056 |
| RPUSD4 (UniProt Q96CM3) | inactive: -0.054 |
| RTCA (UniProt O00442) | inactive: 0.026 |
| RPLP2 (UniProt P05387) | inactive: -0.026 |
| RPS21 (UniProt P63220) | inactive: -0.034 |
| RWDD2A (UniProt Q9UIY3) | inactive: 0.087 |
| RPS27A (UniProt P62979) | inactive: -0.058 |

Compound: c1ccc([C@@H]2C[C@H]2NC2CCNCC2)cc1
Experiment: as above
Summary of the method: as §1

| Target | log2 fold change |
| --- | --- |
| RRP1 (UniProt P56182) | inactive: 0.047 |
| RPS16 (UniProt P62249) | inactive: 0.055 |
| RUVBL1 (UniProt Q9Y265) | inactive: 0.031 |
| RPL39P5 (UniProt Q59GN2) | inactive: -0.029 |
| RUSC2 (UniProt Q8N2Y8) | inactive: 0.113 |
| RPL9 (UniProt P32969) | inactive: 0.018 |
| RPS29 (UniProt P62273) | inactive: 0.398 |
| RRBP1 (UniProt Q9P2E9) | inactive: 0.027 |
| RUFY1 (UniProt Q96T51) | inactive: -0.009 |
| RPS5 (UniProt P46782) | inactive: 0.066 |
| RTTN (UniProt Q86VV8) | inactive: 0.024 |
| RRP8 (UniProt O43159) | inactive: 0.124 |
| RTF2 (UniProt Q9BY42) | inactive: -0.041 |
| RPS20 isoform 2 (UniProt P60866) | inactive: -0.033 |
| RTRAF (UniProt Q9Y224) | inactive: -0.014 |
| RSPRY1 (UniProt Q96DX4) | inactive: -0.013 |
| RTN4 isoform 2 (UniProt Q9NQC3) | inactive: -0.035 |
| RPS13 (UniProt P62277) | inactive: 0.048 |
| RPP25 (UniProt Q9BUL9) | inactive: 0.013 |
| RSL1D1 (UniProt O76021) | inactive: 0.023 |

| Target | log2 fold change |
| --- | --- |
| RPP38 (UniProt P78345) | inactive: -0.048 |
| RPL37 (UniProt P61927) | inactive: -0.022 |
| RPS18 (UniProt P62269) | inactive: -0.075 |
| RPS6 (UniProt P62753) | inactive: -0.047 |
| RRP15 (UniProt Q9Y3B9) | inactive: 0.01 |
| RRP1B (UniProt Q14684) | inactive: 0.031 |
| RTN2 (UniProt O75298) | inactive: -0.008 |
| RTF1 (UniProt Q92541) | inactive: 0.021 |
| RTN3 isoform 5 (UniProt O95197) | inactive: 0.152 |
| RSRC1 (UniProt Q96IZ7) | inactive: 0.015 |
| RPL7 (UniProt P18124) | inactive: 0.006 |
| RPLP0 (UniProt P05388) | inactive: 0.023 |
| RPS25 (UniProt P62851) | inactive: 0.003 |
| RPP21 isoform 4 (UniProt Q9H633) | inactive: -0.01 |
| RPUSD4 (UniProt Q96CM3) | inactive: 0.011 |
| RTCA (UniProt O00442) | inactive: -0.014 |
| RPLP2 (UniProt P05387) | inactive: 0.023 |
| RPS21 (UniProt P63220) | inactive: -0.035 |
| RWDD2A (UniProt Q9UIY3) | inactive: 0.152 |
| RPS27A (UniProt P62979) | inactive: 0.035 |
